US8518959B2, “Quinoxaline derivatives as antitumor agents” (Prolexys Pharmaceuticals, Inc., priority 2005, dated 2013)
No dose or concentration is given here for some results.

Tested on: engineered cell lines
Experiment: Selectivity ratios for each subsequent pair of engineered cell lines
Format: cell-based, human
Conditions: from selectivity ratios of subsequent pairs of cell lines

## COc1cccc2c1C(=O)c1c(O)c3c(c(O)c1C2=O)C[C@@](O)(C(C)=O)C[C@@H]3O[C@H]1C[C@H](N)[C@H](O)[C@H](C)O1 [Daunorubicin]
  Genetic Basis of Selectivity: TERT/RB

## COc1cccc2c1C(=O)c1c(O)c3c(c(O)c1C2=O)C[C@@](O)(C(=O)CO)C[C@@H]3O[C@H]1C[C@H](N)[C@H](O)[C@H](C)O1 [Doxorubicin]
  Genetic Basis of Selectivity: TERT/RB

## O=C1c2c(O)ccc(O)c2C(=O)c2c(NCCNCCO)ccc(NCCNCCO)c21 [Mitoxantrone]
  Genetic Basis of Selectivity: TERT/RB
